Source: PubChem BioAssay AID1159584 (Peter MacCallum Cancer Centre, 2016)
Assay: 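Genes that CDH1-null MCF10A cells selectively depend on to survive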 (primary screen). Cells: human MCF10A breast epithelial cells, parental and CDH1-null. Reagent: siRNA against human genes. Measured: 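ATP luminescence (CellTiter-Glo) viability per line relative to mean mock wells over all plates, and the ratio of CDH1-null to parental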. Direction: CDH1-null / parental viability ratio: higher = CDH1-null cells survive relatively better than parental; CDH1-null viability vs mock: higher = more viable CDH1-null cells. Units: CDH1-null viability vs mock in fraction of mock.
In all, the deposit lists about 18,000 reagents; below is a part drawn at random. Further read-outs or replicates are left out here. Not given: the amount of reagent, the time to read-out.

What is on record for PRKAG2 (protein kinase AMP-activated non-catalytic subunit gamma 2)?
CDH1-null / parental viability ratio: 0.97; CDH1-null viability vs mock: 0.89

For TRPA1, what was measured?
CDH1-null / parental viability ratio: 1.25; CDH1-null viability vs mock: 1.1

With SIRT5 (sirtuin 5), what does the deposit list?
CDH1-null / parental viability ratio: 1.11; CDH1-null viability vs mock: 0.82

For BRINP3 (BMP/retinoic acid inducible neural specific 3), how do the results read?
CDH1-null / parental viability ratio: 0.87; CDH1-null viability vs mock: 0.86

Which result is listed for MTMR12 (myotubularin related protein 12)?
CDH1-null / parental viability ratio: 1.26; CDH1-null viability vs mock: 0.77

For RO60 (Ro60, Y RNA binding protein), what was measured?
CDH1-null / parental viability ratio: 1.3; CDH1-null viability vs mock: 0.92

How did the screen score DIO3 (iodothyronine deiodinase 3)?
CDH1-null / parental viability ratio: 0.84; CDH1-null viability vs mock: 0.61

What did the screen give for FOXE3 (forkhead box E3)?
CDH1-null / parental viability ratio: 0.93; CDH1-null viability vs mock: 0.78

What did the screen give for SLC22A15?
CDH1-null / parental viability ratio: 1.04; CDH1-null viability vs mock: 0.74

Which result is listed for RPGRIP1 (RPGR interacting protein 1)?
CDH1-null / parental viability ratio: 0.86; CDH1-null viability vs mock: 0.48

For ZNF250 (zinc finger protein 250), how do the results read?
CDH1-null / parental viability ratio: 1.1; CDH1-null viability vs mock: 0.44

How did the screen score QRSL1 (glutaminyl-tRNA amidotransferase subunit QRSL1)?
CDH1-null / parental viability ratio: 1.03; CDH1-null viability vs mock: 1.12

Which result is listed for CLDN18 (claudin 18)?
CDH1-null / parental viability ratio: 1.1; CDH1-null viability vs mock: 0.86

For OR6C3 (olfactory receptor family 6 subfamily C member 3), what does the deposit list?
CDH1-null / parental viability ratio: 1.38; CDH1-null viability vs mock: 0.44

With KIF18B (kinesin family member 18B), how do the results read?
CDH1-null / parental viability ratio: 1.21; CDH1-null viability vs mock: 0.8

What is on record for UBXN1 (UBX domain protein 1)?
CDH1-null / parental viability ratio: 0.97; CDH1-null viability vs mock: 0.97

For MAGOH (mago homolog, exon junction complex subunit), what was measured?
CDH1-null / parental viability ratio: 1.12; CDH1-null viability vs mock: 0.72

Which result is listed for SCML2 (Scm polycomb group protein like 2)?
CDH1-null / parental viability ratio: 0.69; CDH1-null viability vs mock: 0.44

For NTNG1 (netrin G1), how do the results read?
CDH1-null / parental viability ratio: 0.86; CDH1-null viability vs mock: 0.64

How did the screen score MTR (5-methyltetrahydrofolate-homocysteine methyltransferase)?
CDH1-null / parental viability ratio: 1.12; CDH1-null viability vs mock: 1.05

With TMEM156 (transmembrane protein 156), what does the deposit list?
CDH1-null / parental viability ratio: 1.24; CDH1-null viability vs mock: 0.62

Which result is listed for GTF3C3 (general transcription factor IIIC subunit 3)?
CDH1-null / parental viability ratio: 0.98; CDH1-null viability vs mock: 0.88

What is on record for MLEC (malectin)?
CDH1-null / parental viability ratio: 1.09; CDH1-null viability vs mock: 0.5

How did the screen score SYTL4 (synaptotagmin like 4)?
CDH1-null / parental viability ratio: 0.93; CDH1-null viability vs mock: 0.88

For C2CD3 (C2 domain containing 3 centriole elongation regulator), what does the deposit list?
CDH1-null / parental viability ratio: 1.02; CDH1-null viability vs mock: 0.46

What is on record for ASCL3 (achaete-scute family bHLH transcription factor 3)?
CDH1-null / parental viability ratio: 1.72; CDH1-null viability vs mock: 0.98

How did the screen score RFPL4B (ret finger protein like 4B)?
CDH1-null / parental viability ratio: 1.01; CDH1-null viability vs mock: 0.88

How did the screen score CCNA1 (cyclin A1)?
CDH1-null / parental viability ratio: 1.01; CDH1-null viability vs mock: 0.73

For RDM1 (RAD52 motif containing 1), how do the results read?
CDH1-null / parental viability ratio: 0.96; CDH1-null viability vs mock: 1.08

With FAM174B (family with sequence similarity 174 member B), how do the results read?
CDH1-null / parental viability ratio: 0.76; CDH1-null viability vs mock: 0.68

For CMC1 (C-X9-C motif containing 1), how do the results read?
CDH1-null / parental viability ratio: 0.9; CDH1-null viability vs mock: 0.76

With GTF2F1 (general transcription factor IIF subunit 1), how do the results read?
CDH1-null / parental viability ratio: 0.86; CDH1-null viability vs mock: 0.66

What did the screen give for PCDH19 (protocadherin 19)?
CDH1-null / parental viability ratio: 1.07; CDH1-null viability vs mock: 0.91

What did the screen give for INTS15 (integrator complex subunit 15)?
CDH1-null / parental viability ratio: 0.82; CDH1-null viability vs mock: 0.86

What did the screen give for RPS5 (ribosomal protein S5)?
CDH1-null / parental viability ratio: 1.37; CDH1-null viability vs mock: 0.52

How did the screen score SMG6 (SMG6 nonsense mediated mRNA decay factor)?
CDH1-null / parental viability ratio: 1; CDH1-null viability vs mock: 0.76

What is on record for LTBP2 (latent transforming growth factor beta binding protein 2)?
CDH1-null / parental viability ratio: 1.23; CDH1-null viability vs mock: 0.48

For CREG1 (cellular repressor of E1A stimulated genes 1), how do the results read?
CDH1-null / parental viability ratio: 0.9; CDH1-null viability vs mock: 0.77

What is on record for KLHDC10 (kelch domain containing 10)?
CDH1-null / parental viability ratio: 1.02; CDH1-null viability vs mock: 0.65

With LRTM1 (leucine rich repeat transmembrane protein 1), what was measured?
CDH1-null / parental viability ratio: 1.03; CDH1-null viability vs mock: 1.13

For ZBTB41 (zinc finger and BTB domain containing 41), what was measured?
CDH1-null / parental viability ratio: 0.95; CDH1-null viability vs mock: 1.06

What is on record for CHRNB1 (cholinergic receptor nicotinic beta 1 subunit)?
CDH1-null / parental viability ratio: 1.34; CDH1-null viability vs mock: 1.18

What did the screen give for CAMK1 (calcium/calmodulin dependent protein kinase I)?
CDH1-null / parental viability ratio: 0.92; CDH1-null viability vs mock: 0.7

With AAMP (angio associated migratory cell protein), what was measured?
CDH1-null / parental viability ratio: 1.13; CDH1-null viability vs mock: 0.54

What is on record for ESRRA (estrogen related receptor alpha)?
CDH1-null / parental viability ratio: 1.1; CDH1-null viability vs mock: 1.02
